In PubChem BioAssay AID540335 (Broad Institute, 2011):
Among all 1,300 compounds or so, about 270 (21%) were called active.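 How the source made its calls: active means dose-dependent rise or fall in viability, either side of zero, with half-maximal concentration at or below a set limit; inconclusive means flat curve at 30 to 70% viability loss, or poor fit; inactive means flat within 30% either way, or potency beyond limit.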 This is one part of the list. Measured potencies and affinities stand elsewhere.

assay: A375 melanoma cell viability reduction, dose response, counter-screen for MITF modulator project, cherry-pick samples, set 2 (AID 540335); conditions: CellTiter-Glo ATP luminescence, 24 h; at 35 µM (top of the series);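 further: A375 human melanoma cells which do not depend on MITF; 0% = median of neutral control wells and 100% = double that signal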

Row | Structure (SMILES) | activity change, negative = decreased viability
1 | COc1ccc(CNC(=O)CN2C(=O)C3C4C=CC(C4)C3C2=O)cc1 (stereo unspecified) | inactive: 8.04%
2 | COc1ccc(C(=O)NCCSc2ccccc2C)cc1 | inactive: -8.17%
3 | CCOc1ccc(N/C=C/C(=O)c2ccc(OC)c(OC)c2)cc1 | inactive: -11.4%
4 | CC1CCN(c2nc3ccc(C(=O)O)cc3s2)CC1 | inactive: -18%
5 | C=CCN1C(=O)S/C(=C\c2ccc(N3CCOCC3)cc2C)C1=O | inactive: 2.72%
6 | COc1ccc(NC(=O)NC(=O)c2ccccc2)cc1 | inactive: -1.06%
7 | O=C(Nc1nnc(Cc2ccccc2)s1)c1ccccc1 | inactive: 4.38%
8 | O=C(NC1CCCC(C(F)(F)F)C1)c1ccc([N+](=O)[O-])o1 (stereo unspecified) | inactive: 18.6%
9 | Cn1nc([N+](=O)[O-])nc1S(C)(=O)=O | inactive: -14.2%
10 | O=C(CSC(=S)N1CCCCC1)c1c(F)cccc1F | inactive: 3.08%
11 | CCOc1ccc(NC(=O)c2ccccn2)cc1 | inactive: -23.9%
12 | C/C(=N/NC(=O)C(O)(c1ccccc1)c1ccccc1)c1ccc([N+](=O)[O-])o1 | inactive: -9.11%
13 | O=C(N/N=C/c1ccc([N+](=O)[O-])o1)c1cc2ccccc2o1 | inactive: -33.2%
14 | O=[N+]([O-])c1ccc(N/N=C/C=C/c2ccco2)cc1 | inactive: 10.1%
15 | CCC(=O)N1CCN(c2ccc(NC(=O)c3ccc([N+](=O)[O-])o3)cc2)CC1 | inactive: 8.91%
16 | Cc1cc(Cl)ccc1OCCCC(=O)N1CCOCC1 | inactive: 10.2%
17 | Cc1ccc(NC(=O)c2cc(N3C(=O)C=CC3=O)ccc2N2CCOCC2)cc1Cl | inactive: -7.39%
18 | O=C(N/N=C/c1ccc(O)c2ncccc12)c1cccc(Br)c1 | inactive: -36.7%
19 | O=C(Cn1ncc(Cl)c(Cl)c1=O)Nc1ccc2c(c1)OCO2 | inactive: 26.9%
20 | CCCOc1ccc(-c2c(=O)n(O)c3ccccc3[n+]2[O-])cc1 | inactive: 6.07%
21 | O=C(N/N=C/c1ccc([N+](=O)[O-])o1)c1ccccc1-n1cccc1 | inactive: -22.6%
22 | CCCC1=Nc2cc(C(=O)NCCN3CCCC3)ccc2Sc2ccccc21 | inactive: -6.2%
23 | Cc1nc2nc(C)c(NS(=O)(=O)c3ccc4c(c3)CCCC4)c(=O)n2[nH]1 | inactive: 12.3%
24 | O=C(c1nnsc1S(=O)(=O)c1ccc(Cl)cc1)N1CCOCC1 | inactive: -5.83%

Row | Structure (SMILES) | activity change, negative = decreased viability
25 | C/C(=N\NC(=O)C(C)Oc1ccc([N+](=O)[O-])cc1)c1ccccn1 (stereo unspecified) | inactive: -25.9%
26 | CC(C)(C)c1ccc(OCCn2ccccc2=O)cc1 | inactive: 2.03%
27 | O=C(CCCc1ccccc1)Nc1cccc(C(=O)O)c1 | inactive: 3.96%
28 | CC1CCN(C(=O)c2cc3ccccc3o2)CC1 | inactive: 11.5%
29 | O=C(c1ccccc1)c1cc(Cl)ccc1N1C(=O)C=CC1=O | inactive: -30.6%
30 | CCOc1ccc2cc(C#N)c(SCC(=O)OC)nc2c1 | inactive: -3.24%
31 | COC(=O)[C@@H]1C[C@]2(OC(=O)c3ccccc3)C=CC(=O)C[C@@H]2N1C(=O)OCc1ccccc1 | inactive: 5.93%
32 | CCCCNC(=O)Nc1ccc(C2SCCS2)cc1 | inactive: -14.6%
33 | COc1ccc(S(=O)NC2CCCCC2)c(OC)c1C (stereo unspecified) | inactive: -1.99%
34 | O=C(Nc1ccc(N2CCCC2)c(Cl)c1)c1ccc([N+](=O)[O-])o1 | inactive: -19.5%
35 | Cc1ccc(NC(=O)c2cnc3ccccc3n2)cc1C | inactive: 3.06%
36 | COc1cc(/C=C/C(=O)N2CCC=CC2=O)cc(OC)c1OC | inactive: 44.3%
37 | CN(C)c1nc(C=C(C#N)C#N)c(Cl)n1-c1ccc(F)cc1 | inactive: -10.1%
38 | O=C(c1ccc(S(=O)(=O)Cc2ccccc2Cl)c([N+](=O)[O-])c1)N1CCN(c2ccccn2)CC1 | inactive: -4.16%
39 | O=C(CS(=O)c1ccc(C(F)(F)F)cc1[N+](=O)[O-])Oc1ccccc1 (stereo unspecified) | inactive: 0.077%
40 | Cc1ccc(C(=O)N/C(=C\c2ccc(-c3ccccc3[N+](=O)[O-])o2)C(=O)NCCN(C)C)cc1 | inactive: -8.4%
41 | Cc1ccc(S(=O)(=O)CC(CN2CCCCC2)N2CCCCC2)cc1 (stereo unspecified) | inactive: -9.59%
42 | Cc1ccc(NC(=O)c2cc3ccccc3oc2=O)cc1S(=O)(=O)N(C)C | inactive: 5.66%
43 | N#C/C(=C(/O)c1ccc([N+](=O)[O-])o1)c1nc2ccccc2[nH]1 | inactive: -27.3%
44 | CCOC(=O)C1(Cc2cccc(OC)c2)CCCN(C(=O)CSC)C1 (stereo unspecified) | inactive: -0.174%
45 | CCN(Cc1ccc(OC)c(F)c1)C(=O)CCl | inactive: -25.2%
46 | CC(C)c1ccc(CNc2ncccn2)cc1 | inactive: 11.7%
47 | CCN(CC)CCn1nc2c3c(cccc3c1=O)-c1ccccc1-2 | inactive: -17.6%
48 | COc1ccccc1N1CCN(/N=C\c2ccccc2)CC1 | inactive: -2.87%

2 records picked at random from those above, as already listed:
Row | Structure (SMILES) | activity change, negative = decreased viability
48 | COc1ccccc1N1CCN(/N=C\c2ccccc2)CC1 | inactive: -2.87%
9 | Cn1nc([N+](=O)[O-])nc1S(C)(=O)=O | inactive: -14.2%

Later entries

Row | Structure (SMILES) | activity change, negative = decreased viability
49 | CC(=C/c1ccco1)/C=N/N1CCN(c2ccccc2)CC1 | inactive: -30.1%
50 | N=C1C(c2nc3ccccc3[nH]2)=C(O)CN1C1CCCCC1 | inactive: 5.93%
51 | CCC(=O)Nc1cc2nn(-c3ccc(C)cc3)nc2cc1C | inactive: 7.67%
52 | O=C(/C=C\c1ccccc1)NCC(=O)N/N=C/c1ccc(O)cc1O | inactive: -16.7%
53 | Nc1ccc(-c2ncc(-c3ccccc3)o2)cc1 | inactive: 5.66%
54 | Cc1c(C(=O)N(CCO)Cc2ccccc2)oc2c(F)cccc12 | inactive: 10.3%
55 | CC(C)N1C/C(=C/c2cccnc2)C(=O)/C(=C/c2cccnc2)C1 | inactive: 37.1%
56 | CC(=O)COc1ccc2cc(-c3ccccc3)c(=O)oc2c1 | inactive: 4.89%
57 | c1ccc(OCc2nn3c(-c4ccccn4)nnc3s2)cc1 | inactive: 4.7%
58 | C=CCOc1ccc(/C=C/C(C)=N\O)cc1 | inactive: 6.78%
59 | O=C(Nc1ccc(N2CCN(C(=O)c3ccccc3)CC2)cc1)c1ccc([N+](=O)[O-])o1 | inactive: 37.8%
60 | O=C1c2cc([N+](=O)[O-])cc3cc([N+](=O)[O-])cc(c23)C(=O)N1c1ccccn1 | inactive: -21.4%
61 | Cc1cc(N2CCOCC2)ccc1/C=C\[N+](=O)[O-] | inactive: -10.1%
62 | Cc1nn(-c2ccccc2Cl)c(Cl)c1/C=N/Nc1cccc(C(=O)O)c1 | inactive: 13.6%
63 | CCOC(=O)c1ccc(NC(=O)Cc2cccs2)cc1 | inactive: 3.63%
64 | CCC(=O)N1CCN(c2ccc(Cl)cc2NC(=O)c2ccc([N+](=O)[O-])o2)CC1 | inactive: 10.8%
65 | CCN(CC)CCNC(=O)c1c(C)n(-c2ccccc2)c2cc(Br)c(OC)cc12 | inactive: -49.1%
66 | COc1ccc(Br)cc1C(C[N+](=O)[O-])c1c(N)n(C)c(=O)n(C)c1=O (stereo unspecified) | inactive: 2.48%
67 | O=C(CCC(=O)c1ccc[nH]1)c1ccc(Cl)cc1 | inactive: -1.75%
68 | Clc1ccc(-c2c[n+](Cc3cccc(Cl)c3)c3n2CCC3)cc1 | inactive: 3.73%
69 | Cc1ccc(NC(=O)Cn2ncc(Cl)c(Cl)c2=O)cc1S(=O)(=O)N1CCCCC1 | inactive: -14.3%
70 | O=C(O)c1cccc(N/N=C/c2cccs2)c1 | inactive: -3.87%
71 | N#C/C(=C(/O)CCl)c1nc2ccccc2[nH]1 | inactive: -10.4%
72 | CSCCNC(=O)c1ccc2nc(Cc3ccccc3F)oc2c1 | inactive: 9.34%

Part of the list above, reformatted:
Row,Structure (SMILES),"activity change, negative = decreased viability"
52,O=C(/C=C\c1ccccc1)NCC(=O)N/N=C/c1ccc(O)cc1O,inactive: -16.7%
53,Nc1ccc(-c2ncc(-c3ccccc3)o2)cc1,inactive: 5.66%
54,Cc1c(C(=O)N(CCO)Cc2ccccc2)oc2c(F)cccc12,inactive: 10.3%
55,CC(C)N1C/C(=C/c2cccnc2)C(=O)/C(=C/c2cccnc2)C1,inactive: 37.1%

(more compounds)

Row | Structure (SMILES) | activity change, negative = decreased viability
73 | O=[N+]([O-])c1ccccc1OCCOc1ccccc1[N+](=O)[O-] | inactive: -0.92%
74 | O=C(Nc1nc(-c2ccccn2)cs1)c1ccc([N+](=O)[O-])o1 | inactive: -35.5%
75 | COc1cc2c(cc1O)C(SC)=NC(C)(C)C2 | inactive: -20.8%
76 | COc1cccc(NC(=O)c2cc3c(=O)n4ccccc4nc3n(CC(C)C)c2=N)c1 | inactive: -8.17%
77 | CCNc1nc(N)c(C(=O)c2ccc(Cl)s2)s1 | inactive: 4.23%
78 | O=C(N/N=C/c1cc(Br)ccc1O)c1ccncc1 | inactive: -24.7%
79 | COc1cc(OC)cc(-c2oc(=O)c3cc(OC)c(OC)cc3c2C(F)(F)F)c1 | inactive: -13.4%
80 | COC1=C(Nc2ccccc2)C(=O)c2ccccc2C1=O | inactive: -20.6%
81 | Cc1cc(C(=O)CCl)c(C)n1CCc1ccc(F)cc1 | inactive: -24.7%
82 | COc1cc(/C=C/C(=O)c2ccc3c(c2)OCCO3)cc(Br)c1OCC(=O)N(C)C | inactive: 107%
83 | O=C(NCCSc1ccccc1)c1ccccc1F | inactive: 6.97%
84 | CN(C)S(=O)(=O)c1cccc(NC(=O)CSc2nc3c(cc2C#N)C(=O)CC(C)(C)C3)c1 | inactive: 1.16%
85 | COc1ccc(C(=O)CN2Cc3ccccc3C2=N)cc1 | inactive: -0.752%
86 | O=C(Nc1ccc2nc3n(c(=O)c2c1)CCCCC3)c1cc([N+](=O)[O-])ccc1F | inactive: 47.5%
87 | COc1ccc(C(=O)Nc2nc3ccc(OC)cc3s2)cc1 | inactive: 0.195%
88 | COc1ccc2oc3ccc(OC)cc3c(=O)c2c1 | inactive: -5.84%
89 | CN(C)S(=O)(=O)c1ccc(-c2csc(N/N=C/c3ccco3)n2)cc1 | inactive: -2.6%
90 | Cc1ccc(/C=c2/sc3n(c2=O)CCCN=3)o1 | inactive: -4.61%
91 | FC(F)(F)c1cc(CCN2CCNC[C@@H]2Cc2ccccc2)cc(C(F)(F)F)c1 | inactive: -94.9%
92 | O=C(Nc1ccccc1F)c1ccc2c(c1)OCO2 | inactive: -7.28%
93 | Cc1cccc(OCc2nc3ccccc3n2C)c1 | inactive: 16.1%
94 | O=C(Nc1ccc(S(=O)(=O)N2CCCCCC2)cc1)c1[nH]ncc1[N+](=O)[O-] | inactive: -21%
95 | O=C(c1ccc([N+](=O)[O-])s1)N1CCCc2ccccc21 | inactive: -9.78%
96 | Cc1cccc(-c2nc(C#N)c(NCc3ccco3)o2)c1 | inactive: -1.12%
